PubChem BioAssay AID1259308 – NCATS, 2017
Test: 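Knock-downs that increase output of a recombinant reporter protein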 (primary screen). Cell system: human HEK293 embryonic kidney cells stably expressing firefly luciferase (HEK-CMV-Luc2-Hygro). Reagents: single siRNA against human genes, 0.8 pmol siRNA per well. Duration: 72 h. Measured: 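Luciferase light (ONE-Glo) measured on one replicate plate set and viability (CellTiter-Glo) on the other, scaled to a negative control siRNA, with robust z-scores and luciferase per cell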. Direction: total luciferase, z-score: higher = more reporter protein produced. Hit rule: 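Active when the median/MAD z-score for overall luciferase is greater than 3; a gene was taken forward for validation with new siRNAs if at least two of its three siRNAs passed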. Calls: active = raised luciferase; inactive = no rise.
Here is an unselected part of about 59,000 deposited reagents. About 1,510 of them (2.6%) were called active. 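Calls use total luciferase alone and ignore viability, so some active siRNAs may act by altering cell number.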 The numbers tell different reagents against one gene apart. Not all columns of the deposit are shown.

total luciferase, z-score, by gene and reagent
SCN3B: #1 -0.4 inactive; #2 -2.57 inactive; #3 -1.02 inactive
NBPF9: #1 -0.0328 inactive; #2 -0.193 inactive; #3 2.75 inactive
H4C1: #1 0.0602 inactive; #2 -0.14 inactive; #3 0.208 inactive
RAB4A: #1 0.933 inactive; #2 -0.724 inactive; #3 -0.586 inactive
NCR1: #1 0.595 inactive; #2 3.54 active; #3 -0.84 inactive
PKNOX2: #1 -0.0905 inactive; #2 0.441 inactive; #3 0.21 inactive
KIF19: #1 0.394 inactive; #2 -0.28 inactive; #3 -1.09 inactive
C3orf49: #1 0.345 inactive; #2 0.979 inactive; #3 -0.729 inactive
LOC442132: #1 2.3 inactive; #2 -1.69 inactive; #3 -0.554 inactive
ABCA13: #1 0.393 inactive; #2 -0.977 inactive; #3 -0.811 inactive
ATP6AP2: #1 0.242 inactive; #2 0.865 inactive; #3 -0.736 inactive
CD1B: #1 0.000482 inactive; #2 -1.37 inactive; #3 0.248 inactive
KCNK7: #1 -1.22 inactive; #2 -1.3 inactive; #3 0.383 inactive
DDX42: #1 1.55 inactive; #2 -0.96 inactive; #3 0.689 inactive
METRN: #1 1.75 inactive; #2 -0.794 inactive; #3 -1.05 inactive
BRK1: #1 -0.537 inactive; #2 0.372 inactive; #3 -2.13 inactive
CDIN1: #1 0.617 inactive; #2 2.57 inactive; #3 0.604 inactive
VSTM2A: #1 1.57 inactive; #2 1.58 inactive; #3 -1.18 inactive
LRWD1: #1 0.583 inactive; #2 -0.935 inactive; #3 0.703 inactive
FGFR2: #1 -0.616 inactive; #2 1.12 inactive; #3 -0.749 inactive
OR51I1: #1 0.988 inactive; #2 -1.55 inactive; #3 1.65 inactive
DOCK7: #1 -0.636 inactive; #2 -1.21 inactive; #3 -0.193 inactive
KAT2A: #1 -0.249 inactive; #2 -0.173 inactive; #3 -1.22 inactive
OR3A3: #1 2.97 inactive; #2 0.268 inactive; #3 -1.55 inactive
ZNF677: #1 -0.121 inactive; #2 -0.889 inactive; #3 -0.379 inactive
